{
  "sequences": {"note": "The chains behind the UniProt entries cited, without tags or fusion partners. Where a name states a change or a piece, a line headed by the entry shows the natural chain unless it says otherwise.", "UniProt Q9UNA4": "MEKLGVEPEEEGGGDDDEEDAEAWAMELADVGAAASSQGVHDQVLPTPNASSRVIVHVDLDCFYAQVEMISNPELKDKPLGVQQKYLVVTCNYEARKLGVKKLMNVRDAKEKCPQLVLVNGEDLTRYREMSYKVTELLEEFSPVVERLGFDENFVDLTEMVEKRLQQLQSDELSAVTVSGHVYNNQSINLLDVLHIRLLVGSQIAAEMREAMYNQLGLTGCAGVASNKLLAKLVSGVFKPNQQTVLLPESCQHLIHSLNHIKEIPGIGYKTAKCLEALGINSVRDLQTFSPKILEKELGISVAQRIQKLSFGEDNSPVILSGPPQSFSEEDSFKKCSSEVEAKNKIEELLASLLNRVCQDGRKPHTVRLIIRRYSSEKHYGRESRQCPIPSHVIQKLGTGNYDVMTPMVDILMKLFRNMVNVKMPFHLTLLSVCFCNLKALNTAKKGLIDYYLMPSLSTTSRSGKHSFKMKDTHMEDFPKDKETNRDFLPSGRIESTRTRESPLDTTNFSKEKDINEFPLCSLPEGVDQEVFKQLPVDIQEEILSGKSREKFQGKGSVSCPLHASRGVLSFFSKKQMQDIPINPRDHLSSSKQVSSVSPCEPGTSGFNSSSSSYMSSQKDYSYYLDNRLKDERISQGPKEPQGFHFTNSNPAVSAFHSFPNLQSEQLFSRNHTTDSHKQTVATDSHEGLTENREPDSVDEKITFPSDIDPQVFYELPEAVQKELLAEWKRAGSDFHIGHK"},
  "source": "PubChem BioAssay AID588590",
  "about": "(National Center for Advancing Translational Sciences (NCATS), 2011)",
  "note": "About 4,000 (1%) of roughly 390,000 compounds were called active. This list was built around the results that the source calls inconclusive (neither active nor inactive); the mix of calls is not that of the screen. The call rests on the fitted dose curve; in most records, active means well fitted inhibition curve with a large enough effect; inconclusive means small, poorly fitted or top-dose-only effect, or another doubt; inactive means no such curve, though single readings can be large or run the other way. Potencies beside an inconclusive call are fits to weak or partial responses and may not hold up. Potency means the concentration at half of the fitted maximal effect.",
  "data": [
    {"target": "DNA polymerase iota (Homo sapiens) (UniProt Q9UNA4)", "assay": "qHTS for Inhibitors of Polymerase Iota", "details": "Pol iota fluorescent replication assay, 10 min; series mostly up to 115 µM", "how_it_was_run": "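Fluorescent replication assay read twice, at 0 min and 10 min after adding 50 nM (final) substrate. Enzyme (10 nM) and compounds were first incubated 15 min at room temperature; enzyme-free buffer wells were negative controls.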", "values": [
      {"smiles": "CCSC1=C(C#N)C(c2ccccc2OC)CC(=O)N1", "note": "(stereo not given)", "Potency": "inconclusive: 0.631 µM [inhibitor, full curve, poor fit]"},
      {"smiles": "CC(=O)Nc1ccc2cc3ccc(NC(C)=O)cc3nc2c1", "Potency": "inconclusive: 11.2 µM [inhibitor, partial curve]"},
      {"smiles": "COc1ccc(CNS(=O)(=O)CCNC(=O)c2ccc(OC)cc2)cc1", "Potency": "inactive"},
      {"smiles": "CCc1cc2c(=O)c(-c3nc4ccccc4n3C)c(COCC(=O)O)oc2cc1O", "Potency": "inactive"},
      {"smiles": "COc1ccc(N(C(=O)c2snc(C(N)=O)c2N)C(C(=O)NC2CCCC2)c2cccs2)cc1OC", "note": "(stereo not given)", "Potency": "active: 8.91 µM"},
      {"smiles": "CCOc1cccc(=O)c2c(C)n(CC(=O)c3ccccc3)c(C)c12", "Potency": "inconclusive: 12.6 µM [inhibitor, full curve, poor fit]"},
      {"smiles": "CCc1cc[n+](C2=C([O-])c3ccccc3C(=O)/C2=N\\S(=O)(=O)c2cccs2)cc1", "Potency": "inconclusive: 17.8 µM [inhibitor, partial curve, poor fit]"},
      {"smiles": "Cc1cc(-c2nnc(SCc3ccccn3)o2)no1", "Potency": "inconclusive: 79.4 µM [inhibitor, single point]"},
      {"smiles": "CSc1cccc(NC(=O)N2CCN(S(=O)(=O)c3ccc4c(ccn4C)c3)CC2)c1", "Potency": "inactive"},
      {"smiles": "COc1ccc2c(CNCCc3ccccc3OC)c(C(=O)O)n(Cc3ccc(F)cc3Cl)c2c1", "Potency": "inconclusive: 100 µM [inhibitor, partial curve, poor fit]"},
      {"smiles": "COc1cccc(/C=N/Nc2nnc(C)n2N)c1OCc1ccccc1Cl", "Potency": "active: 20 µM"},
      {"smiles": "O=C(O)[C@@H](O)[C@@H](O)[C@H](O)[C@H](O)CO", "Potency": "inconclusive: 89.1 µM [inhibitor, single point]"},
      {"smiles": "CCn1nc([N+](=O)[O-])c(C(C#N)c2nc3ccccc3n2C)c(Cl)c1=O", "note": "(stereo not given)", "Potency": "inconclusive: 35.5 µM [inhibitor, partial curve, poor fit]"},
      {"smiles": "Cc1cccc(NC(=O)C2CCN(S(=O)(=O)c3c(C)noc3/C=C/c3ccco3)CC2)c1C", "Potency": "inconclusive: 79.4 µM [inhibitor, single point]"},
      {"smiles": "O=C(O)CSc1nc2ccc(Cl)cc2[nH]1", "Potency": "inconclusive: 112 µM [inhibitor, partial curve, poor fit]"},
      {"smiles": "CC(NC(=O)CC(O)(C(F)(F)F)C(F)(F)F)c1ccccc1", "note": "(stereo not given)", "Potency": "inconclusive: 79.4 µM [inhibitor, partial curve]"},
      {"smiles": "Cn1ccnc1SCC(=O)c1cc2ccccc2o1", "Potency": "inconclusive: 25.1 µM [inhibitor, single point]"},
      {"smiles": "O=C(c1ccccc1)N1CCN(S(=O)(=O)N2CCOCC2)CC1", "Potency": "inconclusive: 100 µM [inhibitor, single point]"},
      {"smiles": "CN(C)c1ccc(/C=N/NC(=O)c2nnn(-c3nonc3N)c2CN(C)c2ccccc2)cc1", "Potency": "inconclusive: 7.08 µM [inhibitor, full curve, poor fit]"},
      {"smiles": "Cc1cccc(NC(=S)NCc2ccc3c(c2)cc(C)n3C)c1C", "Potency": "inconclusive: 17.8 µM [inhibitor, partial curve, poor fit]"},
      {"smiles": "Cc1nc2c(-c3ccc(F)cc3)c(C)nn2c(C)c1CCC(=O)NCc1cccc(Cl)c1", "Potency": "inactive"},
      {"smiles": "N#Cc1c(NC(=O)c2cccnc2)sc2c1CCC2", "Potency": "inconclusive: 22.4 µM [inhibitor, full curve, poor fit]"},
      {"smiles": "COc1ccc(C(c2oc(CO)cc(=O)c2O)c2oc(CO)cc(=O)c2O)cc1OC", "Potency": "inconclusive: 39.8 µM [inhibitor, partial curve, poor fit]"},
      {"smiles": "Cc1cc(=O)oc2cc(OCc3ccc(S(=O)(=O)N4CCOCC4)cc3)ccc12", "Potency": "inconclusive: 56.2 µM [inhibitor, partial curve, poor fit]"},
      {"smiles": "CCOC(=O)C1=C(C)NC(=S)N(C(C)=O)C1c1ccccc1", "note": "(stereo not given)", "Potency": "inconclusive: 44.7 µM [inhibitor, partial curve, poor fit]"},
      {"smiles": "CN1CCc2c(sc3c2c(=O)n(-c2ccccc2)c2n[nH]c(=S)n32)C1", "Potency": "inconclusive: 14.1 µM [inhibitor, full curve]"},
      {"smiles": "O=S(=O)(NCC1CCCO1)c1ccc(S(=O)(=O)N(Cc2ccc(F)cc2)Cc2ccccn2)cc1", "note": "(stereo not given)", "Potency": "inactive"},
      {"smiles": "CC(=O)Nc1ccc(S(=O)(=O)N/N=C/c2ccc(C)o2)cc1", "Potency": "active: 25.1 µM"},
      {"smiles": "CC1CCc2nc(NC(=O)Cc3ccc(Cl)cc3)sc2C1", "note": "(stereo not given)", "Potency": "inconclusive: 79.4 µM [inhibitor, single point]"},
      {"smiles": "O=C1CC(c2ccccc2)=NN1c1ccccc1", "Potency": "inactive"},
      {"smiles": "CSC(=Nc1ccccc1)N=C(SCc1ccccc1)N(C)C", "Potency": "inactive"},
      {"smiles": "COC(=O)[C@]1(Cc2ccccc2)N[C@H](CN(C)C(=O)c2ccc(F)cc2)[C@@H]2C(=O)N(C)C(=O)[C@@H]21", "Potency": "inconclusive: 28.2 µM [inhibitor, single point]"},
      {"smiles": "CCOC(=O)c1sc(NC(=O)CSc2ncn[nH]2)c(C#N)c1C", "Potency": "inconclusive: 56.2 µM [inhibitor, partial curve, poor fit]"},
      {"smiles": "COc1ccccc1C(=O)Nc1ccc(NC(=O)c2ccco2)c(C)c1", "Potency": "inconclusive: 20 µM [inhibitor, partial curve, poor fit]"},
      {"smiles": "Cc1ccc(-c2n[nH]c3c2C(c2ccccc2)N(c2ccc(C(=O)O)cc2)C3=O)cc1", "note": "(stereo not given)", "Potency": "inconclusive: 89.1 µM [inhibitor, partial curve, poor fit]"},
      {"smiles": "Cc1ccc(C(=O)OCC(=O)Nc2sc3c(c2C#N)CCCC3)cc1NC(=O)c1ccco1", "Potency": "inconclusive: 20 µM [inhibitor, full curve]"},
      {"smiles": "NS(=O)(=O)c1ccc(NC(=O)CSc2nnc(COc3ccccc3Cl)n2C2CC2)cc1", "Potency": "inconclusive: 12.6 µM [inhibitor, partial curve, poor fit]"},
      {"smiles": "Cc1ccc(-c2nc3scc(CCNS(=O)(=O)c4c(C)noc4C)n3n2)cc1", "Potency": "inconclusive: 35.5 µM [inhibitor, partial curve, poor fit]"},
      {"smiles": "Cc1cccc(OCCCC(=O)Nc2ccc(N3CCCCC3)cc2)c1C", "Potency": "inconclusive: 14.1 µM [inhibitor, full curve, poor fit]"},
      {"smiles": "O=c1oc2ccc(NS(=O)(=O)c3cccc4cccnc34)cc2s1", "Potency": "inconclusive: 11.2 µM [inhibitor, full curve, poor fit]"}
    ]}
  ]
}
